Our source for the binding values is doi:10.1101/2020.11.05.369959.

Protein sequences, listed by entry. Tags and fused reporters are not part of them.
UniProt Q9C0K0: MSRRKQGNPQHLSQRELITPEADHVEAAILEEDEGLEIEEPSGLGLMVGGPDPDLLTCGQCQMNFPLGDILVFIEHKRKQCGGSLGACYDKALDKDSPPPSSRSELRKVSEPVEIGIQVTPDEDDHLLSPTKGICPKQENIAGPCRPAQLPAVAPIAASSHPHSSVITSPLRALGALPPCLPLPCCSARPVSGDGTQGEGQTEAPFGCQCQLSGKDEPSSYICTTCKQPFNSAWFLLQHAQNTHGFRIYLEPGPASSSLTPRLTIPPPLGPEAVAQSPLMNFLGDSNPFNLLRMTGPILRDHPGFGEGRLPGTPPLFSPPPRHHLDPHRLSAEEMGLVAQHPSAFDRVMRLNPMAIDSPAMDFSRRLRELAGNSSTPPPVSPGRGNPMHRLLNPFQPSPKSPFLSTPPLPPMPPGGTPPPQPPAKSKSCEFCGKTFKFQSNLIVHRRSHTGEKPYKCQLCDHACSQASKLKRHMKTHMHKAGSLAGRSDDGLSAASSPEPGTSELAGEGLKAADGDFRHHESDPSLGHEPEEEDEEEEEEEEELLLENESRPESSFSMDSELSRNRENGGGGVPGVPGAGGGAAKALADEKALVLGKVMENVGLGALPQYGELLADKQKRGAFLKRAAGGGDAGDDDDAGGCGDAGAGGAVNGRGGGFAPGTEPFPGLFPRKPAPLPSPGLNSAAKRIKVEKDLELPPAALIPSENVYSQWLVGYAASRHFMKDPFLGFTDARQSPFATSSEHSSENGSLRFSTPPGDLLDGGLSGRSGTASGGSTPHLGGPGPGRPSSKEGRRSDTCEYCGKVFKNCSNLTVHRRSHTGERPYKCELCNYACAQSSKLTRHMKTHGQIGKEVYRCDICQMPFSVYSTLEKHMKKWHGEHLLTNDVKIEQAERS
UniProt P35637: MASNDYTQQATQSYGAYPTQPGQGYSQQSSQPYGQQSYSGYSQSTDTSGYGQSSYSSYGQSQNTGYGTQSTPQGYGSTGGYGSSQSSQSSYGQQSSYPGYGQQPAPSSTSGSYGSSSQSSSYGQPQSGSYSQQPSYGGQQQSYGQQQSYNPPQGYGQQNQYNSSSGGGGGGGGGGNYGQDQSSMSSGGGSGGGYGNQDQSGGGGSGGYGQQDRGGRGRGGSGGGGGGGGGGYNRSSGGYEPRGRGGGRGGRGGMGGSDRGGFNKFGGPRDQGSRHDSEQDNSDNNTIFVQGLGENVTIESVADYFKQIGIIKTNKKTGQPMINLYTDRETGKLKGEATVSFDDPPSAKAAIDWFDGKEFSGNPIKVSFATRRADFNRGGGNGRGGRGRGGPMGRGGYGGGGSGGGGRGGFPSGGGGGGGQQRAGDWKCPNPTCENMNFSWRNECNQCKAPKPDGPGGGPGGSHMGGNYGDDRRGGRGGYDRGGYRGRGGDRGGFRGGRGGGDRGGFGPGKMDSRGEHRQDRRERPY
UniProt Q16637: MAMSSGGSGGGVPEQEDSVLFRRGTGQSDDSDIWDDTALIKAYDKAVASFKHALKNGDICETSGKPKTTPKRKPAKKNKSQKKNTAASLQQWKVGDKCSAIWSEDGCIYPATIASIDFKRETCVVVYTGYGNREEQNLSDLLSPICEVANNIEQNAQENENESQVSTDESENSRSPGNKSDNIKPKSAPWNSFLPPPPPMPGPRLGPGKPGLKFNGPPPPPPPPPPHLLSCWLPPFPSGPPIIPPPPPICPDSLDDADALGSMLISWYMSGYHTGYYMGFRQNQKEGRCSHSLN

The target of this test is Flag-BCL11b (B-cell lymphoma/leukemia 11B) (UniProt Q9C0K0). Nature of the test: co-IP.

Results are given in words; binding and its absence hold for the method and conditions named. Binding seen in cells or lysates may run through a third protein. Some results given as binding are weak or reduced against the parent protein; the word gives no strength.

In the case of FUS (from UniProt P35637 1-526), the binding entry was “binds”.
To SMN1 (from UniProt Q16637 1-294) belongs “binds”.
